The values that follow come from paper PMC7721357.

In assay [1] the target is T1, Myc-Rv2626c in stable Raw264.7 or THP-1 cells (Mycobacterium tuberculosis H37Rv) (UniProt P9WJA3).
T1 sequence: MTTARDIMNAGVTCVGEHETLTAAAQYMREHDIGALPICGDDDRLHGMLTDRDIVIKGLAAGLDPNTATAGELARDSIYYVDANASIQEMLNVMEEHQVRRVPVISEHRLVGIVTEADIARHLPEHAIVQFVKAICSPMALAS
Kind of assay: co-IP.

For assay [2], the target named is T2, recombinant His-tagged rRv2626c (Mycobacterium tuberculosis H37Rv) (UniProt P9WJA3).
T2 sequence: T1 sequence
Kind of assay: co-IP; THP-1 cells and BMDMs stimulated with rRv2626c (2.5 μg/ml) for the indicated times; IP with αHis or αTRAF6, IB with αTRAF6 and αHis; only the target purified.

These are yes or no findings as the source states them, for the method shown. In cells and extracts the contact can be indirect. Some results given as binding are weak or reduced against the parent protein; the word gives no strength. Tags and fused reporters may be left off the sequences shown.

B1: endogenous TRAF6 of mouse cells (protein, UniProt P70196 1-530)
chain: MSLLNCENSCGSSQSSSDCCAAMAASCSAAVKDDSVSGSASTGNLSSSFMEEIQGYDVEFDPPLESKYECPICLMALREAVQTPCGHRFCKACIIKSIRDAGHKCPVDNEILLENQLFPDNFAKREILSLTVKCPNKGCLQKMELRHLEDHQVHCEFALVNCPQCQRPFQKCQVNTHIIEDCPRRQVSCVNCAVSMAYEEKEIHDQSCPLANIICEYCGTILIREQMPNHYDLDCPTAPIPCTFSVFGCHEKMQRNHLARHLQENTQLHMRLLAQAVHNVNLALRPCDAASPSRGCRPEDPNYEETIKQLESRLVRQDHQIRELTAKMETQSMYVGELKRTIRTLEDKVAEMEAQQCNGIYIWKIGNFGMHLKSQEEERPVVIHSPGFYTGRPGYKLCMRLHLQLPTAQRCANYISLFVHTMQGEYDSHLPWPFQGTIRLTILDQSEALIRQNHEEVMDAKPELLAFQRPTIPRNPKGFGYVTFMHLEALRQGTFIKDDTLLVRCEVSTRFDMGGLRKEGFQPRSTDAGV
In the case of B1, the binding result in assay [1] and in assay [2] was “binds” each time.
